Results from the supplement of paper PMC12823440, “Inhibitors supercharge kinase turnover through native proteolytic circuits” (Nature, 2025).
This is one part of the list. The calls rarely recur for the same compound in another form.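 Kinases, fused to nanoluciferase, were expressed in K562 cells; luminescence was measured every 4 h from 2 to 18 h as percent of control (DMSO = 100%, positive control = 0%). A time point is decreased if signal falls significantly (2 sigma). Hits were called by the authors by a rule that is not shown; the count of time points alone does not decide it.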

The chains behind the UniProt entries cited, without tags or fusion partners. Where a name states a change or a piece, a line headed by the entry shows the natural chain unless it says otherwise.
UniProt P21860, whole entry: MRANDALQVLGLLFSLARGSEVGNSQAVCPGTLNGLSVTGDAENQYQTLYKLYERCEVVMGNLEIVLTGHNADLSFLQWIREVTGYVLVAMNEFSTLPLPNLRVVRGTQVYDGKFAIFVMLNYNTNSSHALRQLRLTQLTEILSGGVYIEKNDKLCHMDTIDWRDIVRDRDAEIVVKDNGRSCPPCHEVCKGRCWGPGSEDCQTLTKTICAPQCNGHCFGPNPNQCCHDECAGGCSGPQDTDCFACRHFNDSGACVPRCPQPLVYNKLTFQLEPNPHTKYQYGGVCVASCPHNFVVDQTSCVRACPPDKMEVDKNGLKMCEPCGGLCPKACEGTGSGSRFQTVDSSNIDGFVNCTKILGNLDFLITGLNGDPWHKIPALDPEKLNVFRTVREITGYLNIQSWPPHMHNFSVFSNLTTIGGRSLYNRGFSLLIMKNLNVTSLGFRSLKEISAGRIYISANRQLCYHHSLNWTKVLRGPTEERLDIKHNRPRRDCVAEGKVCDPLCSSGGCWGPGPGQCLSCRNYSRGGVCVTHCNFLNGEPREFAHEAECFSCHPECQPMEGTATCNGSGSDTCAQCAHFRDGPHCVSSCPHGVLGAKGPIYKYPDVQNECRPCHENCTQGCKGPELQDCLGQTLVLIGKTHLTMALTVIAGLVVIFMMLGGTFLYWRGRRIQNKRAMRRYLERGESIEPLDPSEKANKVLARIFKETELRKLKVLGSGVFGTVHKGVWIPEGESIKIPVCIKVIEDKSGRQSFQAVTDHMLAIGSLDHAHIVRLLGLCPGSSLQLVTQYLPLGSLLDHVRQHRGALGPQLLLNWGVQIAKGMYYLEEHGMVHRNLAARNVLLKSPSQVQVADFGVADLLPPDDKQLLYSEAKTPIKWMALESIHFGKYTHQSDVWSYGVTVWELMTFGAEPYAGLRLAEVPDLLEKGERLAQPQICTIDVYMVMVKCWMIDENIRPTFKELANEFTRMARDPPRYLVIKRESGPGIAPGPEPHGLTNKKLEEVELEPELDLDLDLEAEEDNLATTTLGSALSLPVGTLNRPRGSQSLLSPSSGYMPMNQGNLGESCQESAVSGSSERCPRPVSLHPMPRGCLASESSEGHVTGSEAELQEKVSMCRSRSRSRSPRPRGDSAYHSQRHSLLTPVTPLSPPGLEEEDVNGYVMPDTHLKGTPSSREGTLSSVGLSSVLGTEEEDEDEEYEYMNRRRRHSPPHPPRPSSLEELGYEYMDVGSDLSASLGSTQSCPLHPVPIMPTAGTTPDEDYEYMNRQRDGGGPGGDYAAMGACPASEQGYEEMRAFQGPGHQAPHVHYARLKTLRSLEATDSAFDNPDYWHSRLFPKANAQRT
UniProt O75460: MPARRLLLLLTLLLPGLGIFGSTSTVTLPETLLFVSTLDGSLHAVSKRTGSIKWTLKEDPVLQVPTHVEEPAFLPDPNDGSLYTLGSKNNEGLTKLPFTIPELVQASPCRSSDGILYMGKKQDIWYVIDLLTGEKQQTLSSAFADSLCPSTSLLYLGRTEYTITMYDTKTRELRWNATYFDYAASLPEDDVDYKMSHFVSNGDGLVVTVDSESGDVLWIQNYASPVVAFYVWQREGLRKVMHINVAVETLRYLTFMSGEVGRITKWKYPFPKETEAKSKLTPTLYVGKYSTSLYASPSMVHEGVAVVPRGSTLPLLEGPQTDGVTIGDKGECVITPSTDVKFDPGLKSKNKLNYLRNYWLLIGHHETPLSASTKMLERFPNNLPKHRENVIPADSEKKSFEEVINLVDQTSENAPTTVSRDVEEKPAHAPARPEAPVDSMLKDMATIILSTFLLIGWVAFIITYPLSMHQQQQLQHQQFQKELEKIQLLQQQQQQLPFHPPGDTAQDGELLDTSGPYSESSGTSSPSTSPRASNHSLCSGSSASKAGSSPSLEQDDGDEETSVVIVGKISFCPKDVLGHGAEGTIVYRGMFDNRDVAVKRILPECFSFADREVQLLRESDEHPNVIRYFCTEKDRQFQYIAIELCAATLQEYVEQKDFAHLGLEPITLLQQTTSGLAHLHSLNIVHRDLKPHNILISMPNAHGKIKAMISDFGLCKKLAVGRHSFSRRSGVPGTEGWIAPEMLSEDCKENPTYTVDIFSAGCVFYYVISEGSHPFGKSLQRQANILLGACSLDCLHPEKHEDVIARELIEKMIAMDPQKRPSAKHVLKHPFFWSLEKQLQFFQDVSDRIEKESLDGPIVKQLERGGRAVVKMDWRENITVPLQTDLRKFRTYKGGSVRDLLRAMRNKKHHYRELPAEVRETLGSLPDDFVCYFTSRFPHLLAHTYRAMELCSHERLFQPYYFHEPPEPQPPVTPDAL
UniProt P11362, whole entry, looked up: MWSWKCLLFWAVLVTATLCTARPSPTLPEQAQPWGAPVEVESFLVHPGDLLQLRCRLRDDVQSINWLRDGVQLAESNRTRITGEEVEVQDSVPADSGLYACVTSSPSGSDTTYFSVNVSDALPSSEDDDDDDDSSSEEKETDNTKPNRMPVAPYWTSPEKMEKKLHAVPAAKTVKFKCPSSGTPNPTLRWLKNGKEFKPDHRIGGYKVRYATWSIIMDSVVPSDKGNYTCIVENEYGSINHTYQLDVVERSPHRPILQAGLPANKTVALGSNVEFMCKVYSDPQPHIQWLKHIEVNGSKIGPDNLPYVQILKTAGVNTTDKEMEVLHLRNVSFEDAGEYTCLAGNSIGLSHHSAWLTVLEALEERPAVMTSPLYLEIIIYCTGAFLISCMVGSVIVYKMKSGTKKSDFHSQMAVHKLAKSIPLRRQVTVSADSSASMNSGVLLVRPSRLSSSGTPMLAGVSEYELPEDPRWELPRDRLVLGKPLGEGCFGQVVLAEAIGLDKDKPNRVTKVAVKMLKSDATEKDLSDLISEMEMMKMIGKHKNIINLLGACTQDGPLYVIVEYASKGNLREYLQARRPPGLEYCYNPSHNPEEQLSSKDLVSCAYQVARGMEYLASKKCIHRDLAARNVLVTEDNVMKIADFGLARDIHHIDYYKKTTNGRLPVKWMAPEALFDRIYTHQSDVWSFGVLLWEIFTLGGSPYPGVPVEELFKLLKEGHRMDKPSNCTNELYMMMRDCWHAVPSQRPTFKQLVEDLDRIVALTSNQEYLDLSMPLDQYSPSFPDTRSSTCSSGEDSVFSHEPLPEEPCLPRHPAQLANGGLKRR
UniProt P22607, whole entry, looked up: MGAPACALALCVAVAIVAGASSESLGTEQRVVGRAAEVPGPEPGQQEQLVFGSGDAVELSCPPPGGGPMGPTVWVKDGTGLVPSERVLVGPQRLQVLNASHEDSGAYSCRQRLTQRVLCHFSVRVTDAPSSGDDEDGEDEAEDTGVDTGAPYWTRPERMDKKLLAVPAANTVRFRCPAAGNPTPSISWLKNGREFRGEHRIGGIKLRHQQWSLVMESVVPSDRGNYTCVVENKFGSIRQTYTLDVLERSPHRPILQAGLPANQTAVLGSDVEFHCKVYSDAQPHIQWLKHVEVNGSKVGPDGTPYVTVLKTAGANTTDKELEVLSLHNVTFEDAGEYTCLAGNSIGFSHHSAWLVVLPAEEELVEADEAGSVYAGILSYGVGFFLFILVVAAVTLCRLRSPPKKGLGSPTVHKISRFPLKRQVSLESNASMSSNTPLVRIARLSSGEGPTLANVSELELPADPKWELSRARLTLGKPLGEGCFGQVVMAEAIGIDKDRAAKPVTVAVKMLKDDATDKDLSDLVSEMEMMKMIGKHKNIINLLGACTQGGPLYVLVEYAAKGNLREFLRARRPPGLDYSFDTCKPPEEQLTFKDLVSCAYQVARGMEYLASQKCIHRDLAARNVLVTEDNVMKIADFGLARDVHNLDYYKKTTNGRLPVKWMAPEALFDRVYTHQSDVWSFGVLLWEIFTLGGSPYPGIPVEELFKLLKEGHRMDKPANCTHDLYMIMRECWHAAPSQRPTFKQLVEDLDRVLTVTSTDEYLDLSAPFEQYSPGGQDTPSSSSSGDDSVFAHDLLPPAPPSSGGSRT
UniProt Q9Y616: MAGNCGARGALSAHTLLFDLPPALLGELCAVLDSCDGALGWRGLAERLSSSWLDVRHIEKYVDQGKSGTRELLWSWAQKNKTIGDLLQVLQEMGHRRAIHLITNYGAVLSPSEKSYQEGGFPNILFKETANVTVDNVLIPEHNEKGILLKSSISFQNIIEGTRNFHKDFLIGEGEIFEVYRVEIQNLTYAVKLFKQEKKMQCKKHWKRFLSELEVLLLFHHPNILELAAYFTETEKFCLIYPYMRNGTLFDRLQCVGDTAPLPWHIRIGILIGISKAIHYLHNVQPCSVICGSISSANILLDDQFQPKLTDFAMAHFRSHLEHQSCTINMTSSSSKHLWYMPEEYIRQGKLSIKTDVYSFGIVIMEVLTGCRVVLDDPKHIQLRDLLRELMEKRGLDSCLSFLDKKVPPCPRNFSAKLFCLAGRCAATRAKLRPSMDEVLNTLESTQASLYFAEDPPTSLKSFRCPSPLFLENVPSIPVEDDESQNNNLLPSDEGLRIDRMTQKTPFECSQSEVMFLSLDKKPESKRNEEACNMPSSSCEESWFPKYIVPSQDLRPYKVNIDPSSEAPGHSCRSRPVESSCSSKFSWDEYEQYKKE
UniProt P23458: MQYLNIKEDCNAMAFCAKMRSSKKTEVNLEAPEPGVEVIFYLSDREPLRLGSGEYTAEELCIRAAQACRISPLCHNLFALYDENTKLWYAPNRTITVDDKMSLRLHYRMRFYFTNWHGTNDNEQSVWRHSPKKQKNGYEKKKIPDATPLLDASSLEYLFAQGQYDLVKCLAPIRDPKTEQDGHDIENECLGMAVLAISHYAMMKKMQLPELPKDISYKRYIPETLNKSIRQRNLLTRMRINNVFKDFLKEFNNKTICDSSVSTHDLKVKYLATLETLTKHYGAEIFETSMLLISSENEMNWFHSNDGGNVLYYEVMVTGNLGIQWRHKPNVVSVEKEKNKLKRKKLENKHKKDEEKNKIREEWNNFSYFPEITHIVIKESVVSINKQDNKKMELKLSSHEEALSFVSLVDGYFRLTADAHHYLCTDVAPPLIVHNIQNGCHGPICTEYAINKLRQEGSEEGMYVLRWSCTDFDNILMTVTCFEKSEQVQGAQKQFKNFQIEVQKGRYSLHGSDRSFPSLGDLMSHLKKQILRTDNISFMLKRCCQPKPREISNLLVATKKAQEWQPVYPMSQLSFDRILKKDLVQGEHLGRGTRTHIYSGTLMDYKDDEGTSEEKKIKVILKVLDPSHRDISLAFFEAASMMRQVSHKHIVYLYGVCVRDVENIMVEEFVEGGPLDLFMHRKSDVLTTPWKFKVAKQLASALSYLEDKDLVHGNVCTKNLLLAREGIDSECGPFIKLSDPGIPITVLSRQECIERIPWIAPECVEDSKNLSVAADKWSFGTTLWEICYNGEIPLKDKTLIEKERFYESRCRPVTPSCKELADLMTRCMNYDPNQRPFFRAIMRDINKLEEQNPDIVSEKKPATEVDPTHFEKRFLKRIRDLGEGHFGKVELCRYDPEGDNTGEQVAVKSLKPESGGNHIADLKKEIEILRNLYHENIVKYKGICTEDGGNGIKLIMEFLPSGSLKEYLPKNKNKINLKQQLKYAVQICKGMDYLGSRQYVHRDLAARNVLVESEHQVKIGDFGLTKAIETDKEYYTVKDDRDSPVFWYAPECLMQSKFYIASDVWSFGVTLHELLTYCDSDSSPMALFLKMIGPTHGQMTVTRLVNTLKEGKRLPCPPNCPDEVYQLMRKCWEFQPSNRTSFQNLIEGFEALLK
UniProt P53671: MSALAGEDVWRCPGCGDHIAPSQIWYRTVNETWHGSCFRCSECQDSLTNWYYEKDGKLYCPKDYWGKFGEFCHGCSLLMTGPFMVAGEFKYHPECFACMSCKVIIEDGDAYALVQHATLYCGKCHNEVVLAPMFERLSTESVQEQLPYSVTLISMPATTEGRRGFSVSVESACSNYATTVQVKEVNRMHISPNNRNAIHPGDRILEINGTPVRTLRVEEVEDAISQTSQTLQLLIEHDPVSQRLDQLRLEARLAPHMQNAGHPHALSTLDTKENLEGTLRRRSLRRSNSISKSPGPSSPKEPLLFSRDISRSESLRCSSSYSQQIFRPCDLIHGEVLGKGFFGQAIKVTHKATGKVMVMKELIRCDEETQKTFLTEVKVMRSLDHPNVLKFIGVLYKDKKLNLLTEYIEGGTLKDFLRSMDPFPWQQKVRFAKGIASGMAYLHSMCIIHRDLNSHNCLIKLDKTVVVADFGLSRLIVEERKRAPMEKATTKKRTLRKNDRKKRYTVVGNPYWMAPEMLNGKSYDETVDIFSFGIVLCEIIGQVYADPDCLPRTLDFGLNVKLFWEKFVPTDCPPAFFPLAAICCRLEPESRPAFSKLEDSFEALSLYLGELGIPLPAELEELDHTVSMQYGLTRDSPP

Columns and labels:
Experiment in all cases: number of time points (of 5) at which kinase-Nluc abundance scored as decreased, DMSO-normalised (count); higher = more persistent destabilization
Settings in all cases: K562; 2-18 h
EGFR_L861Q = EGFR_L861Q (UniProt P00533)
EGFR_T790M = EGFR_T790M (UniProt P00533)
EPHA2 = EPHA2 (UniProt P29317)
ERBB3 = ERBB3 (UniProt P21860)
[1] = target: ERBB4_R711C (clone: ERBB4_mut) (UniProt Q15303)
ERN1 = ERN1 (UniProt O75460)
FGFR1 = FGFR1 (UniProt P11362)
FGFR2 = FGFR2 (UniProt P21802)
FGFR3 = FGFR3 (UniProt P22607)
FGR = FGR (UniProt P09769)
FLT3 = FLT3 (UniProt P36888)
FYN = FYN (UniProt P06241)
GSK3A = GSK3A (UniProt P49840)
HER2 = HER2 (UniProt P04626)
INSRR = INSRR (UniProt P14616)
IRAK3 = IRAK3 (UniProt Q9Y616)
JAK1 = JAK1 (UniProt P23458)
LCK = LCK (UniProt P06239)
LIMK1 = LIMK1 (UniProt P53667)
LIMK2 = LIMK2 (UniProt P53671)

Measured: number of time points

Nc1cccc(S(=O)(=O)N2CCCN(S(=O)(=O)c3ccc4c(c3)OCCO4)CC2)c1 (10 µM)
0: EGFR_L861Q | EGFR_T790M | EPHA2 | ERBB3 | [1] | ERN1 | FGFR1 | FGFR2 | FGFR3 | FGR | FLT3 | FYN | GSK3A | HER2 | INSRR | IRAK3 | JAK1 | LCK | LIMK1 | LIMK2

COc1cc(N2CCC(O)CC2)ccc1Nc1cc(Nc2ccccc2S(=O)(=O)C(C)C)c2cc[nH]c2n1 (10 µM)
0: EGFR_L861Q | EGFR_T790M | EPHA2 | ERBB3 | [1] | ERN1 | FGFR1 | FGFR2 | FGFR3 | FGR | FLT3 | FYN | GSK3A | HER2 | INSRR | IRAK3 | JAK1 | LCK | LIMK1 | LIMK2

Nc1cc(C(F)F)c(-c2nc(N3C4CCC3COC4)nc(N3C4CCC3COC4)n2)cn1 (2.5 µM)
0: EGFR_L861Q | EGFR_T790M | EPHA2 | ERBB3 | [1] | ERN1 | FGFR1 | FGFR2 | FGFR3 | FGR | FLT3 | FYN | GSK3A | INSRR | IRAK3 | JAK1 | LCK | LIMK1 | LIMK2
2: HER2

CC(=O)NCCc1c[nH]c2ccc(O)cc12 [N-Acetyl-5-hydroxytryptamine] (10 µM)
0: EGFR_L861Q | EGFR_T790M | EPHA2 | ERBB3 | [1] | ERN1 | FGFR1 | FGFR2 | FGFR3 | FGR | FLT3 | FYN | GSK3A | HER2 | INSRR | IRAK3 | JAK1 | LCK | LIMK1 | LIMK2

Cc1ccc(-c2ccc3c(ccc4sc5c(c43)NC[C@@H](C)NC5=O)n2)cn1 (10 µM)
0: EGFR_L861Q | EGFR_T790M | EPHA2 | ERBB3 | [1] | ERN1 | FGFR1 | FGFR2 | FGFR3 | FGR | FLT3 | FYN | GSK3A | HER2 | INSRR | IRAK3 | JAK1 | LCK | LIMK1 | LIMK2

COc1ccccc1/C=C1\C(=O)Nc2ccccc21 (10 µM)
0: EGFR_L861Q | EGFR_T790M | EPHA2 | ERBB3 | [1] | ERN1 | FGFR1 | FGFR2 | FGFR3 | FGR | FLT3 | FYN | GSK3A | HER2 | INSRR | IRAK3 | JAK1 | LCK | LIMK1 | LIMK2

c1ccc(-c2nn3c(c2-c2ccnc4cc(OCCN5CCOCC5)ccc24)CCC3)nc1 (10 µM)
0: EGFR_L861Q | EGFR_T790M | EPHA2 | ERBB3 | [1] | ERN1 | FGFR1 | FGFR2 | FGFR3 | FGR | FLT3 | FYN | GSK3A | HER2 | INSRR | IRAK3 | JAK1 | LCK | LIMK1 | LIMK2

O=C(Nc1ccc(Cl)cc1)C1CCCN(C(=O)c2cccc(-c3ccco3)c2)C1 (stereo not given) (2.5 µM)
0: EGFR_L861Q | EGFR_T790M | EPHA2 | ERBB3 | [1] | ERN1 | FGFR1 | FGFR2 | FGFR3 | FGR | FLT3 | FYN | GSK3A | HER2 | INSRR | IRAK3 | JAK1 | LCK | LIMK1 | LIMK2

Cc1cc2cc(Oc3ccnc(Nc4cccc(CS(=O)(=O)NCCN(C)C)c4)n3)ccc2[nH]1 [Sulfatinib] (10 µM)
2: [1] | FGFR2 | INSRR
3: ERBB3 | IRAK3 | LIMK1
0: EGFR_L861Q | EGFR_T790M | EPHA2 | ERN1 | FGFR1 | FGFR3 | FGR | FLT3 | FYN | GSK3A | HER2 | JAK1 | LCK | LIMK2

O=c1nc(N2CCOCC2)oc2c(-c3cccc4c3sc3ccccc34)cccc12 (10 µM)
0: EGFR_L861Q | EGFR_T790M | EPHA2 | ERBB3 | [1] | ERN1 | FGFR1 | FGFR2 | FGFR3 | FGR | FLT3 | FYN | GSK3A | HER2 | INSRR | IRAK3 | JAK1 | LCK | LIMK1 | LIMK2

CN(C)Cc1cccc(N=C(c2ccccc2)c2c(O)[nH]c3cc(C(=O)N(C)C)ccc23)c1 (10 µM)
0: EGFR_L861Q | EGFR_T790M | EPHA2 | ERBB3 | [1] | ERN1 | FGFR1 | FGFR2 | FGFR3 | FGR | FLT3 | FYN | GSK3A | HER2 | INSRR | IRAK3 | JAK1 | LCK | LIMK1 | LIMK2
